Record: PubChem BioAssay AID504764 (Drosophila RNAi Screening Center, 2011)
Aim: 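Genome-wide screen for regulators of Notch-driven gene expression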 (primary screen). Cell system: Drosophila Kc167 cells. Knock-down reagent: long dsRNA against Drosophila genes. Time to read-out: about 5 days (4 days dsRNA, then 24 h after transfection). Conditions: transfection of constitutively active membrane-tethered Notch lacking the extracellular domain, read 24 h later. Measured: 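Firefly luciferase from an E(spl)m3 reporter with active Notch, plus control-promoter and uninduced reporter wells for normalisation; unnormalised counts, duplicate wells a and b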. Scale: induced reporter light, run 1, well a and induced reporter light, run 1, well b: higher = more light from the Notch target reporter with active Notch; control promoter light, run 1, well a and control promoter light, run 1, well b: higher = more light from the viral control promoter (cell number, transfection, viability); uninduced reporter light, run 1, well a: higher = more light from the Notch target reporter without active Notch. Rule for the call: 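Hit if the duplicate-averaged log2 ratio of induced to control-promoter light gives a plate-wise z beyond ±2, or induced to uninduced beyond ±1.8; weak-control or discordant-duplicate wells dropped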. Calls: active = modifier hit (raised or lowered Notch signal); inactive = not a hit.
The deposit covers about 22,000 reagents; this is a random part of those with a known target gene and a result. In the full data, 403 (1.9%) are marked active. 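Unnormalised raw counts per well; ratio z-scores behind the hit calls and whether each hit raises or lowers signal are not deposited.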 A number with no mark means an inactive call. Names joined by + are all predicted targets of the reagent. The record does not give: the amount of reagent.

How did the screen score Su(Tpl) (Suppressor of Triplolethal) [DRSC10954]?
induced reporter light, run 1, well a: 1.04e5; induced reporter light, run 1, well b: 1.23e5; control promoter light, run 1, well a: 85485; control promoter light, run 1, well b: 1.10e5; uninduced reporter light, run 1, well a: 11135

Which result is listed for CG12990 [DRSC19510]?
induced reporter light, run 1, well a: 42220; induced reporter light, run 1, well b: 54920; control promoter light, run 1, well a: 56915; control promoter light, run 1, well b: 36530; uninduced reporter light, run 1, well a: 8665

What did the screen give for Vha36-3 (Vacuolar H[+] ATPase 36kD subunit 3) [DRSC18615]?
induced reporter light, run 1, well a: 1.26e5; induced reporter light, run 1, well b: 1.02e5; control promoter light, run 1, well a: 1.67e5; control promoter light, run 1, well b: 1.99e5; uninduced reporter light, run 1, well a: 8510

What did the screen give for peo (pendolino) [DRSC05995]?
induced reporter light, run 1, well a: 1.49e5; induced reporter light, run 1, well b: 1.64e5; control promoter light, run 1, well a: 1.59e5; control promoter light, run 1, well b: 1.51e5; uninduced reporter light, run 1, well a: 15010

With RpS11 (Ribosomal protein S11) [DRSC07289], what does the deposit list?
induced reporter light, run 1, well a: 1.20e5; induced reporter light, run 1, well b: 1.29e5; control promoter light, run 1, well a: 1.16e5; control promoter light, run 1, well b: 1.42e5; uninduced reporter light, run 1, well a: 8525

With Coq8 (Coenzyme Q8) [DRSC19900], how do the results read?
induced reporter light, run 1, well a: 1.33e5; induced reporter light, run 1, well b: 1.40e5; control promoter light, run 1, well a: 3.24e5; control promoter light, run 1, well b: 3.06e5; uninduced reporter light, run 1, well a: 11525

For RecQ4 (RecQ4 helicase) [DRSC11265], what does the deposit list?
induced reporter light, run 1, well a: 1.71e5; induced reporter light, run 1, well b: 1.44e5; control promoter light, run 1, well a: 1.99e5; control promoter light, run 1, well b: 1.19e5; uninduced reporter light, run 1, well a: 18288

What did the screen give for CG18766 [DRSC15936]?
induced reporter light, run 1, well a: 1.52e5; induced reporter light, run 1, well b: 1.71e5; control promoter light, run 1, well a: 2.19e5; control promoter light, run 1, well b: 2.27e5; uninduced reporter light, run 1, well a: 13710

For CG14315 [DRSC14794], what does the deposit list?
induced reporter light, run 1, well a: 1.81e5; induced reporter light, run 1, well b: 1.81e5; control promoter light, run 1, well a: 1.91e5; control promoter light, run 1, well b: 1.85e5; uninduced reporter light, run 1, well a: 12780

Which result is listed for CG9284 (retired record) [DRSC03899]?
induced reporter light, run 1, well a: 76190; induced reporter light, run 1, well b: 86595; control promoter light, run 1, well a: 62335; control promoter light, run 1, well b: 95070; uninduced reporter light, run 1, well a: 8390

What did the screen give for CG9284 (retired record) [DRSC04536]?
induced reporter light, run 1, well a: 1.34e5; induced reporter light, run 1, well b: 1.11e5; control promoter light, run 1, well a: 90510; control promoter light, run 1, well b: 1.03e5; uninduced reporter light, run 1, well a: 8160

With Ns4 (Nucleostemin 4) [DRSC03199], what was measured?
induced reporter light, run 1, well a: 2.49e5; induced reporter light, run 1, well b: 2.21e5; control promoter light, run 1, well a: 2.42e5; control promoter light, run 1, well b: 2.75e5; uninduced reporter light, run 1, well a: 18080

What did the screen give for fun (retired record) [DRSC12300]?
induced reporter light, run 1, well a: 1.31e5; induced reporter light, run 1, well b: 1.18e5; control promoter light, run 1, well a: 86380; control promoter light, run 1, well b: 76910; uninduced reporter light, run 1, well a: 12310

What did the screen give for krimp (krimper) [DRSC06578]?
induced reporter light, run 1, well a: 1.04e5; induced reporter light, run 1, well b: 1.12e5; control promoter light, run 1, well a: 1.83e5; control promoter light, run 1, well b: 2.23e5; uninduced reporter light, run 1, well a: 8975

With CG10598 [DRSC19358], what does the deposit list?
induced reporter light, run 1, well a: 1.02e5; induced reporter light, run 1, well b: 1.17e5; control promoter light, run 1, well a: 1.27e5; control promoter light, run 1, well b: 91805; uninduced reporter light, run 1, well a: 13915

With Sse (Separase) [DRSC09746], what was measured?
induced reporter light, run 1, well a: 78700; induced reporter light, run 1, well b: 92855; control promoter light, run 1, well a: 99860; control promoter light, run 1, well b: 36055; uninduced reporter light, run 1, well a: 12610

Which result is listed for Adh + Adhr [DRSC01862]?
induced reporter light, run 1, well a: 3.14e5 (active); induced reporter light, run 1, well b: 2.82e5; control promoter light, run 1, well a: 1.99e5; control promoter light, run 1, well b: 1.97e5; uninduced reporter light, run 1, well a: 14940

With Adh + Adhr [DRSC01863], what was measured?
induced reporter light, run 1, well a: 1.53e5; induced reporter light, run 1, well b: 1.60e5; control promoter light, run 1, well a: 1.42e5; control promoter light, run 1, well b: 1.55e5; uninduced reporter light, run 1, well a: 13710

For Pdh (Photoreceptor dehydrogenase) [DRSC11249], what does the deposit list?
induced reporter light, run 1, well a: 1.31e5; induced reporter light, run 1, well b: 1.20e5; control promoter light, run 1, well a: 1.02e5; control promoter light, run 1, well b: 1.14e5; uninduced reporter light, run 1, well a: 10135

For Hacl (2-hydroxyacyl-CoA lyase) [DRSC06061], what was measured?
induced reporter light, run 1, well a: 91990; induced reporter light, run 1, well b: 94315; control promoter light, run 1, well a: 1.84e5; control promoter light, run 1, well b: 1.88e5; uninduced reporter light, run 1, well a: 8510

What did the screen give for MESK2 + CG10494 [DRSC04259]?
induced reporter light, run 1, well a: 65610; induced reporter light, run 1, well b: 54325; control promoter light, run 1, well a: 42575; control promoter light, run 1, well b: 61815; uninduced reporter light, run 1, well a: 2178

With CG17187 [DRSC15181], what was measured?
induced reporter light, run 1, well a: 69795; induced reporter light, run 1, well b: 58925; control promoter light, run 1, well a: 75580; control promoter light, run 1, well b: 38630; uninduced reporter light, run 1, well a: 4738

For lqfR (liquid facets-Related) [DRSC14703], how do the results read?
induced reporter light, run 1, well a: 92595; induced reporter light, run 1, well b: 1.02e5; control promoter light, run 1, well a: 86505; control promoter light, run 1, well b: 89785; uninduced reporter light, run 1, well a: 10670

Which result is listed for lqfR (liquid facets-Related) [DRSC14704]?
induced reporter light, run 1, well a: 1.61e5; induced reporter light, run 1, well b: 1.28e5; control promoter light, run 1, well a: 1.59e5; control promoter light, run 1, well b: 1.76e5; uninduced reporter light, run 1, well a: 11110

Records listed so far whose gene name begins with S or s (2):
Su(Tpl) (Suppressor of Triplolethal) [DRSC10954] | induced reporter light, run 1, well a: 1.04e5; induced reporter light, run 1, well b: 1.23e5; control promoter light, run 1, well a: 85485; control promoter light, run 1, well b: 1.10e5; uninduced reporter light, run 1, well a: 11135
Sse (Separase) [DRSC09746] | induced reporter light, run 1, well a: 78700; induced reporter light, run 1, well b: 92855; control promoter light, run 1, well a: 99860; control promoter light, run 1, well b: 36055; uninduced reporter light, run 1, well a: 12610
